This data set can be described thus: chemical recovery from spiked human plasma; higher = better extraction. The note with it: pooled human plasma; extraction method: SPE only (HLB 96-well).

± gives the standard deviation.
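Also: plasma spiked with over 400 chemicals, quantified by LC-HRMS and GC-HRMS via internal standard calibration against matrix-matched unspiked plasma extracts plus spike mix.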

On to `CC(C)(C)c1ccc(O)cc1` [4-tert-Butylphenol], for which the chemical recovery is 23 ± 4.3%.

For the origin of these results see the supplement of paper PMC10702517.
